The results in this text go back to patent US20100047226A1.

The chains behind the UniProt entries cited, without tags or fusion partners.
UniProt P31750: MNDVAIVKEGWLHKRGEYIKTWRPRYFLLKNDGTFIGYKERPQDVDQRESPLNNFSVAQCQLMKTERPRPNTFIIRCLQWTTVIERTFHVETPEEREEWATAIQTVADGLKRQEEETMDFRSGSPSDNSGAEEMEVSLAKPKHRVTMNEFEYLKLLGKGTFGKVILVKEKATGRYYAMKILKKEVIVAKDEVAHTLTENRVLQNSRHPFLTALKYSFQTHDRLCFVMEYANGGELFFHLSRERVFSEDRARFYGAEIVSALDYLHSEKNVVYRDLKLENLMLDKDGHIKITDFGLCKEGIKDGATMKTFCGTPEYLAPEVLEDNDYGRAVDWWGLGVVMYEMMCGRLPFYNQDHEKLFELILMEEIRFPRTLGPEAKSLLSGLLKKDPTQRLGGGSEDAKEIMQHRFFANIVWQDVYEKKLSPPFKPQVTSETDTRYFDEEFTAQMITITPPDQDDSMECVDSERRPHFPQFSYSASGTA

For the experiment, the target named is AKT (Protein Kinase B), endogenous, mouse brain lysate and N2a cells (mouse) (UniProt P31750). The experiment can be described thus: fluorescence co-localisation of N-terminally dye-labeled ZaTa with AKT in cells.

Results are given in words; binding and its absence hold for the method and conditions named. Some entries that bind do so weakly or less than the wild type.

AKRVKGRTWTLCGTPEY (red fluorescent dye at the N-terminus) [ZaTa peptide labeled with a red fluorescent dye at its N-terminus]: the binding result is on record as “binds”.
